Experimental data published in PubChem BioAssay AID186 (DTP/NCI, 2004).
Values are animals surviving of animals treated; these mice carried no tumour. Counts of survivors are from the toxicity check (mostly the fifth day) where no day follows; animals may have died later. Schedules are NCI's codes, taken here to give the interval after Q, in days (D) or hours (H), and the number of doses after X. Some entries hold several experiments; the results are listed from low to high.

Tested on: B6D2F1 mice, nontumored toxicity test, survival
Experiment: NCI In Vivo Anticancer Drug Screen. Data for tumor model Nontumored Animals (Toxicity Test) in B6D2F1 (BDF1) mice

Measured: survivor count

O=c1[nH]cc(F)c(=O)[nH]1
5 of 5: dose: 2.5 mg/kg/injection, schedule: Q01DX009 (ip), vehicle: saline | dose: 7.0 mg/kg/injection, schedule: Q01DX009 (ip), vehicle: saline | dose: 12.0 mg/kg/injection, schedule: Q01DX009 (ip), vehicle: saline | dose: 33.3 mg/kg/injection, schedule: Q01DX009 (ip), vehicle: saline
6 of 6: dose: 2.0 mg/kg/injection, schedule: Q01DX009 (ip), vehicle: water | dose: 2.0 mg/kg/injection, schedule: Q03HX016 (ip), vehicle: water | dose: 2.0 mg/kg/injection, schedule: Q03HX024 (ip), vehicle: water | dose: 4.0 mg/kg/injection, schedule: Q01DX009 (ip), vehicle: water | dose: 4.0 mg/kg/injection, schedule: Q03HX016 (ip), vehicle: water | dose: 4.0 mg/kg/injection, schedule: Q03HX024 (ip), vehicle: water | dose: 8.0 mg/kg/injection, schedule: Q01DX009 (ip), vehicle: water | dose: 8.0 mg/kg/injection, schedule: Q03HX016 (ip), vehicle: water | dose: 8.0 mg/kg/injection, schedule: Q03HX024 (ip), vehicle: water | dose: 8.0 mg/kg/injection, schedule: Q04DX003 (ip), vehicle: water | dose: 9.22 mg/kg/injection, schedule: Q01DX032 (other), vehicle: saline | dose: 11.3 mg/kg/injection, schedule: Q01DX012 (sc), vehicle: other | dose: 11.5 mg/kg/injection, schedule: Q01DX016 (other), vehicle: saline | dose: 11.5 mg/kg/injection, schedule: Q01DX032 (other), vehicle: saline | dose: 14.1 mg/kg/injection, schedule: Q01DX012 (sc), vehicle: other | dose: 14.4 mg/kg/injection, schedule: Q01DX012 (other), vehicle: saline | dose: 14.4 mg/kg/injection, schedule: Q01DX016 (other), vehicle: saline | dose: 14.4 mg/kg/injection, schedule: Q01DX032 (other), vehicle: saline | dose: 16.0 mg/kg/injection, schedule: Q01DX009 (ip), vehicle: water | dose: 16.0 mg/kg/injection, schedule: Q03HX016 (ip), vehicle: water | dose: 16.0 mg/kg/injection, schedule: Q03HX024 (ip), vehicle: water | dose: 16.0 mg/kg/injection, schedule: Q04DX003 (ip), vehicle: water | dose: 17.6 mg/kg/injection, schedule: Q01DX012 (sc), vehicle: other | dose: 18.0 mg/kg/injection, schedule: Q01DX012 (other), vehicle: saline | dose: 18.0 mg/kg/injection, schedule: Q01DX016 (other), vehicle: saline | dose: 18.0 mg/kg/injection, schedule: Q01DX032 (other), vehicle: saline | dose: 22.0 mg/kg/injection, schedule: Q01DX012 (sc), vehicle: other | dose: 22.5 mg/kg/injection, schedule: Q01DX008 (other), vehicle: saline | dose: 22.5 mg/kg/injection, schedule: Q01DX012 (other), vehicle: saline | dose: 22.5 mg/kg/injection, schedule: Q01DX016 (other), vehicle: saline | dose: 22.5 mg/kg/injection, schedule: Q01DX032 (other), vehicle: saline | dose: 27.5 mg/kg/injection, schedule: Q01DX005 (sc), vehicle: other | dose: 27.5 mg/kg/injection, schedule: Q01DX012 (sc), vehicle: other | dose: 28.1 mg/kg/injection, schedule: Q01DX008 (other), vehicle: saline | dose: 28.1 mg/kg/injection, schedule: Q01DX012 (other), vehicle: saline | dose: 28.1 mg/kg/injection, schedule: Q01DX016 (other), vehicle: saline | dose: 28.1 mg/kg/injection, schedule: Q01DX032 (other), vehicle: saline | dose: 32.0 mg/kg/injection, schedule: Q01DX009 (ip), vehicle: water | dose: 32.0 mg/kg/injection, schedule: Q03HX016 (ip), vehicle: water | dose: 32.0 mg/kg/injection, schedule: Q04DX003 (ip), vehicle: water | dose: 34.4 mg/kg/injection, schedule: Q01DX005 (sc), vehicle: other | dose: 35.2 mg/kg/injection, schedule: Q01DX006 (other), vehicle: saline | dose: 35.2 mg/kg/injection, schedule: Q01DX008 (other), vehicle: saline | dose: 35.2 mg/kg/injection, schedule: Q01DX012 (other), vehicle: saline | dose: 35.2 mg/kg/injection, schedule: Q01DX016 (other), vehicle: saline | dose: 35.2 mg/kg/injection, schedule: Q01DX032 (other), vehicle: saline | dose: 42.9 mg/kg/injection, schedule: Q01DX005 (sc), vehicle: other | dose: 44.0 mg/kg/injection, schedule: Q01DX006 (other), vehicle: saline | dose: 44.0 mg/kg/injection, schedule: Q01DX008 (other), vehicle: saline | dose: 44.0 mg/kg/injection, schedule: Q01DX012 (other), vehicle: saline | dose: 44.0 mg/kg/injection, schedule: Q01DX016 (other), vehicle: saline | dose: 44.0 mg/kg/injection, schedule: Q01DX032 (other), vehicle: saline
8 of 8: dose: 2.5 mg/kg/injection, schedule: Q01DX017 (ip), vehicle: saline | dose: 5.0 mg/kg/injection, schedule: Q01DX017 (ip), vehicle: saline | dose: 10.0 mg/kg/injection, schedule: Q01DX017 (ip), vehicle: saline | dose: 12.5 mg/kg/injection, schedule: Q04DX005 (ip), vehicle: saline | dose: 20.0 mg/kg/injection, schedule: Q01DX017 (ip), vehicle: saline | dose: 25.0 mg/kg/injection, schedule: Q04DX003 (ip), vehicle: saline | dose: 25.0 mg/kg/injection, schedule: Q04DX005 (ip), vehicle: saline | dose: 50.0 mg/kg/injection, schedule: Q01DX001 (ip), vehicle: saline
5 of 5 and 8 of 8: dose: 5.0 mg/kg/injection, schedule: Q01DX009 (ip), vehicle: saline | dose: 10.0 mg/kg/injection, schedule: Q01DX009 (ip), vehicle: saline | dose: 40.0 mg/kg/injection, schedule: Q01DX009 (ip), vehicle: saline
10 of 10: dose: 15.0 mg/kg/injection, schedule: Q01DX009 (ip), vehicle: saline | dose: 25.0 mg/kg/injection, schedule: Q01DX009 (ip), vehicle: saline | dose: 30.0 mg/kg/injection, schedule: Q01DX009 (ip), vehicle: saline
10 of 10, 5 of 5, 8 of 8: dose: 20.0 mg/kg/injection, schedule: Q01DX009 (ip), vehicle: saline
